Reference: the supplement of paper PMC10849652
Some of the results follow.

By UniProt entry, the sequences of proteins in these tests, tags left out. Where a name states a change or a piece, a line headed by the entry shows the natural chain unless it says otherwise.
UniProt O00232: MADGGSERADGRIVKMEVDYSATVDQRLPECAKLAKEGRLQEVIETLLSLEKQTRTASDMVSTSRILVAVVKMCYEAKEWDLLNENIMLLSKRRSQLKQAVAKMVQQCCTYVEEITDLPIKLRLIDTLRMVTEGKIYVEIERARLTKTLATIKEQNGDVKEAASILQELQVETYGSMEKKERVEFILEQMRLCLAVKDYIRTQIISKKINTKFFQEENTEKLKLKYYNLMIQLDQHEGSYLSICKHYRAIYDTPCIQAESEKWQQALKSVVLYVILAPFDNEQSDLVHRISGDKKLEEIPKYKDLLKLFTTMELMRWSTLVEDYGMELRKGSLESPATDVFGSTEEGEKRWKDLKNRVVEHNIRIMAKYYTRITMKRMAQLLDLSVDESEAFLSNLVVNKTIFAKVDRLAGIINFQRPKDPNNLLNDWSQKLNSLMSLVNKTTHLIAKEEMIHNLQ
UniProt Q99460, whole entry, looked up: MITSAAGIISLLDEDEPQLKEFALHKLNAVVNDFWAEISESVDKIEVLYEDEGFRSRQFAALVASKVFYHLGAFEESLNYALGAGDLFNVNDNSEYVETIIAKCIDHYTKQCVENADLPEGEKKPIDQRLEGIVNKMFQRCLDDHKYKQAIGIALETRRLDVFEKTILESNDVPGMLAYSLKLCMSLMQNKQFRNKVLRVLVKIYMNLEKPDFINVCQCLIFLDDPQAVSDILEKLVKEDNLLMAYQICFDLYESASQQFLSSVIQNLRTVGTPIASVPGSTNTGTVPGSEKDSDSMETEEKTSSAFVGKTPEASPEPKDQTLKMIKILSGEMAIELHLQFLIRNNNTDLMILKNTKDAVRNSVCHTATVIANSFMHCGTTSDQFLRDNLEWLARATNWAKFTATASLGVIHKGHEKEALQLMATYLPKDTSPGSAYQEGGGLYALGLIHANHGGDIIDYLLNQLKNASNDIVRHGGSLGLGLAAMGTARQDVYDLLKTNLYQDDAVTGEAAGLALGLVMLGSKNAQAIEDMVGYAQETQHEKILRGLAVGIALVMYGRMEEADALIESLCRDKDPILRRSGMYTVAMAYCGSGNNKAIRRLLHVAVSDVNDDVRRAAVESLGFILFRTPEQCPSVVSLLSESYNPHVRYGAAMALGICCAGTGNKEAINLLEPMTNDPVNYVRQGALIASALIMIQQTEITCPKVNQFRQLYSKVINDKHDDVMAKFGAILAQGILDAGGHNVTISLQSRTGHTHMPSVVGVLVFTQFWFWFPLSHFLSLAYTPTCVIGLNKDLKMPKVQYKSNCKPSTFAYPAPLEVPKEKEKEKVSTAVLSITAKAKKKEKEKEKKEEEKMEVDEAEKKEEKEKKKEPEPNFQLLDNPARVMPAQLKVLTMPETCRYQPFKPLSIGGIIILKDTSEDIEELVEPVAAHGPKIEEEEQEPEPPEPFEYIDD
UniProt Q9UNM6: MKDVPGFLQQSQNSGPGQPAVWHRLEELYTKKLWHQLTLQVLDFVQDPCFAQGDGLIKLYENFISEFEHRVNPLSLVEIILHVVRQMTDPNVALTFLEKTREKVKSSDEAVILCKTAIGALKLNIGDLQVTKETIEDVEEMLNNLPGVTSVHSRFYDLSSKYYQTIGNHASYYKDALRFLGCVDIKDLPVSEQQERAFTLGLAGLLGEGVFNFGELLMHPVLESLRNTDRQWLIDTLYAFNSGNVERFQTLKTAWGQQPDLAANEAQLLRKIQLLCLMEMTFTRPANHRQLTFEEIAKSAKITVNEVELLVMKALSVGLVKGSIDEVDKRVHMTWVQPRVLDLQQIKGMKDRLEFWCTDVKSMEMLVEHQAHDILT
UniProt Q9Y3T6: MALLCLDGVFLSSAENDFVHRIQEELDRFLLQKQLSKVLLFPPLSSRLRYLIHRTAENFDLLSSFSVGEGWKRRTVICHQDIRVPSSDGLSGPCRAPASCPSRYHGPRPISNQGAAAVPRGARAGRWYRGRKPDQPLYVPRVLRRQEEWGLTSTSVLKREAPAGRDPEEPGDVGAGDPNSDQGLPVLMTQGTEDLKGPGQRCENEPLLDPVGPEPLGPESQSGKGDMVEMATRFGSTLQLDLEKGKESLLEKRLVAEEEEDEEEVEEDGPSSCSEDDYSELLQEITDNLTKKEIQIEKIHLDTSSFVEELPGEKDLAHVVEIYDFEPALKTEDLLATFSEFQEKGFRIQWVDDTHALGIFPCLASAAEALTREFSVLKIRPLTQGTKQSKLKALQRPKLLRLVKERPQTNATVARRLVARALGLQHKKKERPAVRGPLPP
UniProt Q14289, whole entry, looked up: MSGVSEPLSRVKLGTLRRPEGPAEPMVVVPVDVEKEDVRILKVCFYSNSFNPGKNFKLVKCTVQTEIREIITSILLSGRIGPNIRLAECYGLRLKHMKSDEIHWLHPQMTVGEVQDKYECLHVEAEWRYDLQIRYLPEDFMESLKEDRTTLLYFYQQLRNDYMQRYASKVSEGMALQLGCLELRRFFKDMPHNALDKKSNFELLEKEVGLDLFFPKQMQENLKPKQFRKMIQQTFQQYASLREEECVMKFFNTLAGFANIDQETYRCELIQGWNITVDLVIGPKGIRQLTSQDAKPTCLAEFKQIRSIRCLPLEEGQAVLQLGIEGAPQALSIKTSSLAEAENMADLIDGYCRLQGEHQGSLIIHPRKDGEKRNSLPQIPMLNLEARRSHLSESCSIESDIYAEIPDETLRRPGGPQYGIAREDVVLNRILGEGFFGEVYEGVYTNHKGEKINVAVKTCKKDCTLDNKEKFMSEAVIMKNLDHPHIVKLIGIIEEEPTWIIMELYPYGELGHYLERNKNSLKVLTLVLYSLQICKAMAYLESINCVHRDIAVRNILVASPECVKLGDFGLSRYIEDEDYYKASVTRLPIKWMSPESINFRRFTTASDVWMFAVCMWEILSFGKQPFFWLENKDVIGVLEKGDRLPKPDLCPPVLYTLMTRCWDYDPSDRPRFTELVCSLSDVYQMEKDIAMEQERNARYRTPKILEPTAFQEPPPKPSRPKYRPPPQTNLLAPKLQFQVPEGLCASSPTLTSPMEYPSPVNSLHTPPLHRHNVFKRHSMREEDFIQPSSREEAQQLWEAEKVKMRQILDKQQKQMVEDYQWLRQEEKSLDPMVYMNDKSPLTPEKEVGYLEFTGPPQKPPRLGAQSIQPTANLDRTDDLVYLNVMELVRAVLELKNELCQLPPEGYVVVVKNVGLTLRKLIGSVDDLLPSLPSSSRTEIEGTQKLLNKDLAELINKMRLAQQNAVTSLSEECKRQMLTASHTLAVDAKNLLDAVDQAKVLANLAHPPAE
UniProt Q9UHX1: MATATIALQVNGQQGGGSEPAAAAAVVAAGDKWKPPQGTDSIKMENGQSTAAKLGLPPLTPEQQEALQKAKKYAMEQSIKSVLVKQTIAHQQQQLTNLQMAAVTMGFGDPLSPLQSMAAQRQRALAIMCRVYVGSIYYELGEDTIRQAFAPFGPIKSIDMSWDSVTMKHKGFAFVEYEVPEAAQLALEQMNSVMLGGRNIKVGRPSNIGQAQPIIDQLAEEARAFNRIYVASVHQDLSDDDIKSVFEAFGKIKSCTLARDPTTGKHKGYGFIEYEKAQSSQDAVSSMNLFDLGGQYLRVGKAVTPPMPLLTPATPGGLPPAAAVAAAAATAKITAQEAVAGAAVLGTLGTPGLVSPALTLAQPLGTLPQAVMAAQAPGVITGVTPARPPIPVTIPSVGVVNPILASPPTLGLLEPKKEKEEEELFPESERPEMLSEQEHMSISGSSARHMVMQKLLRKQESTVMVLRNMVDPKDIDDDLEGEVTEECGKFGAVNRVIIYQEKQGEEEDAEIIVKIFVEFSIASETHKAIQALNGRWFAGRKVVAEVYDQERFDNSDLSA
UniProt Q8WXF1: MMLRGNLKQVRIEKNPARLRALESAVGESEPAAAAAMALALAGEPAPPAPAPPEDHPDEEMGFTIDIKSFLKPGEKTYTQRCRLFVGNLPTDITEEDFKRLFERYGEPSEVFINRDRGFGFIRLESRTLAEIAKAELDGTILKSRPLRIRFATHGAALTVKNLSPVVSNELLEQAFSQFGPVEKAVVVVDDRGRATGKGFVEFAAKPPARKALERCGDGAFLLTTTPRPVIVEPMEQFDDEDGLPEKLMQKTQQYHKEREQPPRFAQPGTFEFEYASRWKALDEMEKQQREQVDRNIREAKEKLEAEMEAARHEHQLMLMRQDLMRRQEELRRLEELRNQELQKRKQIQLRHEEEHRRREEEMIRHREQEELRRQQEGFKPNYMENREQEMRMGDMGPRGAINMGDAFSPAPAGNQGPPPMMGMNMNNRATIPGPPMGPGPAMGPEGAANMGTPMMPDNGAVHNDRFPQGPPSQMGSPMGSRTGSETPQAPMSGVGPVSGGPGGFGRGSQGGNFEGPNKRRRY
UniProt P17706: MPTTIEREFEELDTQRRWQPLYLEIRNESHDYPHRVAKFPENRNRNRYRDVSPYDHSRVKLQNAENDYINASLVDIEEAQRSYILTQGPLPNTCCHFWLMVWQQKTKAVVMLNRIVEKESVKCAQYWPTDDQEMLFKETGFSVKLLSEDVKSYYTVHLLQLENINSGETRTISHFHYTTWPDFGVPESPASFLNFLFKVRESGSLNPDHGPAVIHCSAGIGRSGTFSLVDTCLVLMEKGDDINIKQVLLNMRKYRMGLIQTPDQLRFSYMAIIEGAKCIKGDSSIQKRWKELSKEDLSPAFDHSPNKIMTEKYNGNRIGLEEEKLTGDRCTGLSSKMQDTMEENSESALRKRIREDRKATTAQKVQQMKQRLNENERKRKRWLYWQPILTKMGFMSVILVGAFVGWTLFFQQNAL
UniProt P43378: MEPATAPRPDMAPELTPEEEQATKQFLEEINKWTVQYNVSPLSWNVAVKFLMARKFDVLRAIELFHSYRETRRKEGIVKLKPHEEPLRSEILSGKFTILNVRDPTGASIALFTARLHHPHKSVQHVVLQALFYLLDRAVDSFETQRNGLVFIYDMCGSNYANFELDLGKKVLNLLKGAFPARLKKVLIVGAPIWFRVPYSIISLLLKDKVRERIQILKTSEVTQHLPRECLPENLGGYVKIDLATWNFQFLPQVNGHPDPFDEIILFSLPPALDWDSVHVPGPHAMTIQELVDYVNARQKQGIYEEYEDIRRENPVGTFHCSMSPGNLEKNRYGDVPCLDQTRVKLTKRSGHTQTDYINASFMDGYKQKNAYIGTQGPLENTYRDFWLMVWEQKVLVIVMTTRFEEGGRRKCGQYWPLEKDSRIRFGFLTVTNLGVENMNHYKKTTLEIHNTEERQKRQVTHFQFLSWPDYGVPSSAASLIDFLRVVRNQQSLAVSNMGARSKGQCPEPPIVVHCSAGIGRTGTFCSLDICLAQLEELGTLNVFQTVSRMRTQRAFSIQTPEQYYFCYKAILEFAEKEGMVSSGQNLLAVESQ
UniProt Q92932: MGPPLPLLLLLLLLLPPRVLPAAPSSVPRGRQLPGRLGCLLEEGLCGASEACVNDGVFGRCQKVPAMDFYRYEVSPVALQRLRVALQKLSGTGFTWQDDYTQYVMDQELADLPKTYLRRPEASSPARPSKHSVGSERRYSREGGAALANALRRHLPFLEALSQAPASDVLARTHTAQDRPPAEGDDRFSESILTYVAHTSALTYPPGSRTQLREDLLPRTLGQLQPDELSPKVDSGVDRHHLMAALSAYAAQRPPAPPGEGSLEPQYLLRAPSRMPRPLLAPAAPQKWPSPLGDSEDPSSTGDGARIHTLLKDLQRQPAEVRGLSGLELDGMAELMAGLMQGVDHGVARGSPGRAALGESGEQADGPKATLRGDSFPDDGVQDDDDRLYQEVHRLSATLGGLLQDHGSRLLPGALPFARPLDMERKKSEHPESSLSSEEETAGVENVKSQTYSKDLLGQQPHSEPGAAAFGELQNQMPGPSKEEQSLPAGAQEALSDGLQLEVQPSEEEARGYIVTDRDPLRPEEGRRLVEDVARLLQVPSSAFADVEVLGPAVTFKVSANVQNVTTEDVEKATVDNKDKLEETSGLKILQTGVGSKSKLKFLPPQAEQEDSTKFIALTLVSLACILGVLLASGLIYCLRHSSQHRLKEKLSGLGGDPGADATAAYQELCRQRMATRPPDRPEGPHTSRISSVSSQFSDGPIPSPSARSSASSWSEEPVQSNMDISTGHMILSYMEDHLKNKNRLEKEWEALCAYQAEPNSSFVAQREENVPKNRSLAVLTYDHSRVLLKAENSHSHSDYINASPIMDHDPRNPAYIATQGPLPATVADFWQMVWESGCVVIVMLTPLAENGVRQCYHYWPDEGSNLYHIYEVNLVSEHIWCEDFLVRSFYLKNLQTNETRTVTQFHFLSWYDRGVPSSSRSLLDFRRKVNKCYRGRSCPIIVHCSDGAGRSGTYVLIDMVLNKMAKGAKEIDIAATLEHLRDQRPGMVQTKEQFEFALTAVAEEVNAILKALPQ
UniProt P53801: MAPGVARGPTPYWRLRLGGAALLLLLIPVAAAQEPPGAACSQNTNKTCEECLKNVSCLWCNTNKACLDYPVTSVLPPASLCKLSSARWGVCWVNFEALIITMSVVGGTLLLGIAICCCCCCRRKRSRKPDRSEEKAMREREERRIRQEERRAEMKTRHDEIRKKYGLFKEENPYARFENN

Assays:
Experiment in all cases: log2 fold change, soluble protein after heating vs DMSO (PISA); higher = thermal stabilisation; K562 cells, 10 uM, 30 min; active = over 0.2 and 3.5 SD of the protein, either way, in both replicates (recomputed)
[1] = compound: CC1=C(C=C(C=C1)NC(=O)C2=CC(=CC=C2)C(C)(C)C#N)NC3=CC4=C(C=C3)N=CN(C4=O)C
In short: (§1)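 Aliquots of K562 cells (2×10^6 cells/mL) treated with 10 μM compound for 30 min were heated for 3 min over 48°C-58°C. After pooling and extraction in PBS with 0.5% NP-40 at 4°C, soluble protein from a 21,000xg, 90 min spin was quantified by TMTpro 16plex LC-MS/MS with channel sums equalised. Thermal stability is expressed against control samples, from duplicates, as a log2 fold change.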

[2] = compound: CC1=C(C=C(C=C1)NC(=O)C2=CC(=CC=C2)N(C)C)NC(=O)C3=CC=C(C=C3)O
In short: as §1

[3] = compound: CC1=CC=C(C=C1)SC2=C3C=C(SC3=CN=C2)C(=O)N
In short: as §1

[4] = compound: CC1=NC(=CC=C1)C2=C(N=C(N2)C(C)(C)C)C3=CC4=NC=CN=C4C=C3
In short: as §1

Nexturastat A = compound: CCCCN(Cc1ccc(C(=O)NO)cc1)C(=O)Nc1ccccc1 [Nexturastat A]
In short: as §1

vemurafenib = compound: CCCS(=O)(=O)Nc1ccc(F)c(C(=O)c2c[nH]c3ncc(-c4ccc(Cl)cc4)cc23)c1F [vemurafenib]
In short: as §1

[5] = compound: CCCS(=O)(=O)Nc1ccc(F)c(C(=O)c2c[nH]c3ncc(Cl)cc23)c1F
In short: as §1

[6] = compound: CCCc1cc(C)[nH]c(=O)c1CNC(=O)c1cc(-c2ccnc(N3CCN(C)CC3)c2)cc2c1cnn2C(C)C
In short: as §1

barasertib = compound: CCN(CCCOc1ccc2c(Nc3cc(CC(=O)Nc4cccc(F)c4)[nH]n3)ncnc2c1)CCOP(=O)(O)O [barasertib]
In short: as §1

[7] = compound: CC[C@@H]1C(=O)N(C)c2cnc(Nc3ccc(C(=O)NC4CCN(C)CC4)cc3OC)nc2N1C1CCCC1
In short: as §1

volasertib = compound: CC[C@@H]1C(=O)N(C)c2cnc(Nc3ccc(C(=O)N[C@H]4CC[C@H](N5CCN(CC6CC6)CC5)CC4)cc3OC)nc2N1C(C)C [volasertib]
In short: as §1

[8] = compound: CC[C@H](C)N1C=C(C2=C(C=C(C=C21)C3=CN=C(C=C3)N4CCNCC4)C(=O)NCC5=C(C=C(NC5=O)C)C)C
In short: as §1

epoxomicin = compound: CC[C@H](C)[C@@H](C(=O)N[C@@H]([C@@H](C)O)C(=O)N[C@@H](CC(C)C)C(=O)[C@]1(CO1)C)NC(=O)[C@H]([C@@H](C)CC)N(C)C(=O)C [epoxomicin]
In short: as §1

[9] = compound: CN(C)CC(=O)Nc1ccc2[nH]c(=O)c3ccccc3c2c1
In short: as §1

rosiglitazone = compound: CN(CCOC1=CC=C(C=C1)C[C@H]2C(=O)NC(=O)S2)C3=CC=CC=N3 (racemic) [rosiglitazone]
In short: as §1

[10] = compound: CN1C2=C(C3=C1C(=O)N(N=C3)CC4=CC(=CC=C4)N)SC(=C2)S(=O)C
In short: as §1

givinostat = compound: CCN(CC)Cc1ccc2cc(COC(=O)Nc3ccc(C(=O)NO)cc3)ccc2c1 [givinostat]
In short: as §1

[11] = compound: CCn1cc(-c2ccnc3[nH]c(-c4cccc(CN(C)C)c4)cc23)c(-c2ccc(NC(=O)N(C)C)cc2)n1
In short: as §1

[12] = compound: CN1CCC(CNc2ccc3ncc(-c4cccc(OC(F)(F)F)c4)n3n2)CC1
In short: as §1

[13] = compound: CCn1c(C(=O)N(C2CC2)C2CC2)cc2c3c(ncn3C)c(Nc3cc(C)n(C)n3)nc21
In short: as §1

Measured: log2 fold change

PSEN1 (UniProt P49768)
inactive: [1] -0.05 | [2] -0.013 | [3] -0.062 | [4] 0.032 | Nexturastat A -0.273 | vemurafenib -0.021 | [5] 0.068 | [6] -0.093 | barasertib -0.039 | [7] 0.035 | volasertib 0.082 | [8] -0.145 | epoxomicin 0.026 | [9] -0.011 | rosiglitazone 0.164 | [10] 0.116

PSMD12 (UniProt O00232)
inactive: [1] 0.066 | [2] -0.004 | [3] -0.005 | [4] -0.011 | Nexturastat A 0.047 | vemurafenib -0.031 | [5] 0.009 | [6] 0.052 | givinostat -0.002 | barasertib -0.044 | [7] 0.03 | volasertib 0.158 | [8] 0.02 | epoxomicin -0.278 | [11] 0.017 | [9] -0.007 | [10] 0.01 | [12] 0.062

PSMD3 (UniProt O43242)
inactive: [1] 0.023 | [2] 0.022 | [3] -0.052 | [4] -0.024 | Nexturastat A 0.065 | vemurafenib -0.06 | [5] -0.032 | [6] 0.034 | givinostat -0.028 | barasertib -0.066 | [7] 0.039 | volasertib 0.133 | [8] 0 | [11] 0.02 | [9] -0.01 | [10] 0.027 | [12] 0.067
active: epoxomicin -0.337

PSMD1 (UniProt Q99460)
inactive: [1] 0.06 | [2] 0.021 | [3] -0.001 | [4] -0.011 | Nexturastat A 0.055 | vemurafenib -0.041 | [5] -0.049 | [6] 0.05 | givinostat -0.046 | barasertib -0.036 | [7] 0.042 | volasertib 0.146 | [8] -0.001 | epoxomicin -0.278 | [11] 0.028 | [9] -0.005 | [10] 0.043 | [12] 0.059

PSMD13 (UniProt Q9UNM6)
active: epoxomicin -0.288
inactive: [1] 0.03 | [2] 0.034 | [3] -0.068 | [4] -0.029 | Nexturastat A 0.064 | vemurafenib -0.05 | [5] -0.048 | [6] -0.016 | givinostat -0.05 | barasertib -0.041 | [7] 0.075 | volasertib 0.217 | [8] 0.008 | [11] 0.043 | [9] -0.01 | [10] 0.02 | [12] 0.038

R3HCC1 (UniProt Q9Y3T6)
inactive: [1] 0.114 | [2] 0.004 | [3] -0.02 | [4] -0.012 | vemurafenib -0.107 | [5] 0.09 | givinostat 0.064 | volasertib -0.334 | [8] 0.137 | [13] 0.123 | [11] 0.114 | [9] 0.026 | [12] 0.056

PSMC2 (UniProt P35998)
inactive: [1] 0.011 | [2] 0.02 | [3] -0.012 | [4] -0.069 | Nexturastat A 0.011 | vemurafenib -0.014 | [5] -0.041 | [6] 0.036 | givinostat -0.032 | barasertib -0.053 | [7] 0.042 | volasertib 0.169 | [8] -0.019 | [11] 0.024 | [9] -0.018 | [10] 0.023 | [12] 0.039
active: epoxomicin -0.324

R3HDM1 isoform 2 (UniProt Q15032)
inactive: [1] 0.041 | [2] -0.164 | [3] 0.093 | [4] 0.084 | vemurafenib 0.071 | [5] -0.057 | [6] 0.012 | givinostat 0.009 | barasertib -0.096 | [7] -0.023 | volasertib -0.046 | [8] 0.169 | [13] -0.08 | [11] 0.086 | [9] 0.037 | rosiglitazone 0.032 | [10] -0.034 | [12] -0.255

PTPA (UniProt A6PVN8)
inactive: [1] 0.062 | [2] -0.128 | [3] -0.15 | Nexturastat A -0.038 | vemurafenib -0.065 | [5] -0.11 | [6] 0.038 | barasertib 0.01 | [7] 0.051 | volasertib -0.041 | [8] -0.03 | epoxomicin 0.053 | [11] 0.047 | [9] 0.016 | [10] 0.069 | [12] 0.011
active: givinostat -0.857

QSOX1 (UniProt O00391)
inactive: [1] -0.035 | [2] 0.083 | [4] -0.037 | Nexturastat A -0.024 | vemurafenib -0.033 | [6] 0.037 | givinostat 0.031 | barasertib -0.021 | [7] 0.122 | [8] 0.002 | epoxomicin -0.117 | [13] -0.022 | [11] -0.01 | [9] 0.026 | rosiglitazone 0.042 | [10] 0.138 | [12] 0.119

PTPN23 (UniProt Q9H3S7)
inactive: [1] -0.062 | [2] -0.049 | [3] -0.009 | [4] 0.002 | Nexturastat A -0.015 | vemurafenib 0.025 | [5] 0.051 | [6] 0.088 | givinostat 0.107 | barasertib 0.047 | [7] -0.163 | [8] 0.019 | epoxomicin 0.013 | [11] -0.006 | [9] 0.073 | [10] 0.016 | [12] -0.106
active: volasertib -0.453

PTK2B (UniProt Q14289)
inactive: [1] -0.09 | [2] 0 | [3] 0.06 | [4] -0.008 | Nexturastat A 0.217 | vemurafenib -0.129 | [5] 0 | [6] 0.06 | givinostat 0.421 | barasertib 0.031 | [8] -0.244 | epoxomicin -0.012 | [11] -0.141 | [9] 0.017 | [10] 0.082 | [12] -0.051
active: volasertib -1.28

PSD4 (UniProt Q8NDX1)
inactive: [1] -0.067 | [2] -0.189 | [4] -0.014 | Nexturastat A 0.061 | vemurafenib -0.1 | givinostat 0.189 | [7] 0.031 | [8] 0.079 | epoxomicin -0.148 | [13] -0.086 | [9] -0.092 | [10] 0.292

Reprinted from the results shown (two entries):
QSOX1 (UniProt O00391)
inactive: [1] -0.035 | [2] 0.083 | [4] -0.037 | Nexturastat A -0.024 | vemurafenib -0.033 | [6] 0.037 | givinostat 0.031 | barasertib -0.021 | [7] 0.122 | [8] 0.002 | epoxomicin -0.117 | [13] -0.022 | [11] -0.01 | [9] 0.026 | rosiglitazone 0.042 | [10] 0.138 | [12] 0.119

PTPN23 (UniProt Q9H3S7)
inactive: [1] -0.062 | [2] -0.049 | [3] -0.009 | [4] 0.002 | Nexturastat A -0.015 | vemurafenib 0.025 | [5] 0.051 | [6] 0.088 | givinostat 0.107 | barasertib 0.047 | [7] -0.163 | [8] 0.019 | epoxomicin 0.013 | [11] -0.006 | [9] 0.073 | [10] 0.016 | [12] -0.106
active: volasertib -0.453

Remaining list, next part:

PUF60 (UniProt Q9UHX1)
active: volasertib -0.304
inactive: [1] 0.046 | [2] -0.018 | [3] 0.043 | [4] 0.022 | Nexturastat A -0.003 | vemurafenib 0.034 | [5] 0.14 | [6] 0.009 | givinostat 0.022 | barasertib 0.025 | [7] -0.078 | [8] 0.033 | epoxomicin 0.028 | [11] -0.032 | [9] 0.007 | [10] -0.031 | [12] 0.051

PSPC1 (UniProt Q8WXF1)
inactive: [1] 0.022 | [2] 0.011 | [3] 0.01 | [4] 0.007 | Nexturastat A 0.053 | vemurafenib -0.003 | [5] 0.135 | [6] 0.167 | givinostat 0.036 | barasertib 0.01 | [7] -0.046 | volasertib -0.167 | [8] 0.1 | epoxomicin 0.031 | [11] -0.054 | [9] 0.012 | [10] 0.041 | [12] 0.029

PTPN2 (UniProt P17706)
inactive: [1] 0.082 | [2] -0.07 | [3] -0.002 | [4] -0.02 | Nexturastat A 0.045 | vemurafenib 0.076 | [5] 0.077 | [6] 0.048 | givinostat 0.073 | barasertib 0.131 | [7] -0.04 | volasertib -0.07 | epoxomicin 0.098 | [13] -0.106 | [11] -0.032 | [9] 0.031 | rosiglitazone 0.097 | [10] 0.05 | [12] -0.016

PTPN9 (UniProt P43378)
inactive: [6] 0.265 | [11] -0.075 | [10] 0.327 | [12] -0.029

PTPRN2 isoform 3 (UniProt Q92932)
inactive: [1] -0.578 | [4] -0.265 | Nexturastat A -0.092 | [6] -0.24 | barasertib 0.093 | [7] 0.083 | [8] 0.061 | epoxomicin -0.159 | rosiglitazone 0.074 | [10] -0.311

PTTG1IP (UniProt P53801)
inactive: [1] 0.122 | [3] -0.107 | [4] -0.062 | Nexturastat A -0.024 | vemurafenib -0.059 | [5] 0.02 | [6] 0.008 | givinostat -0.124 | barasertib -0.025 | [7] -0.223 | volasertib -0.05 | [8] -0.154 | epoxomicin -0.017 | [11] -0.01 | [9] -0.041 | [10] 0.009
active: [12] -0.771
